From patent US6160020A, “Alkali metal and alkaline-earth metal salts of acetaminophen” (priority 1998, dated 2000)
Structures can show the parent of a compound that is named as a salt. Some entries repeat one wording, which the source may state once for all of them.

Tests used:
[1] = taste of acetaminophen salts; conditions: for bitterness: relative to conventional free acid form of acetaminophen
[2] = relative to acetaminophen; cited from earlier work

Row | SMILES | taste [1] | bitterness [1] | bitterness of taste [2]
1 | CC(=O)Nc1ccc(O)cc1 [Sodium Salt, acetaminophen sodium] | somewhat salty | not to have the bitter properties of the conventional free acid form of acetaminophen | –
2 | CC(=O)Nc1ccc(OC(=O)C(N)CC(=O)O)cc1 (stereo not drawn) [AAPA, α-p-acetamidophenyl aspartate] | – | – | less bitter taste than acetaminophen
3 | CC(=O)Nc1ccc(OC(=O)CC(N)C(=O)O)cc1 (stereo not drawn) [BAPA, β-p-acetamidophenyl aspartate] | – | – | less bitter taste than acetaminophen
4 | CC(=O)Nc1ccc(O)cc1 [Calcium Salt, acetaminophen calcium] | almost tasteless | not to have the bitter properties of the conventional free acid form of acetaminophen | –
5 | CC(=O)Nc1ccc(OC(=O)CN)cc1 [APG, p-acetamidophenyl glycinate] | – | – | less bitter taste than acetaminophen
